Assay results as given in PubChem BioAssay AID200 (DTP/NCI, 2004).
The list is a part of this screen's results and no random one: it gathers tests that were run many times, whatever their T/C, doses with no T/C, and many T/C values between a quarter and a half above the control. Further doses and runs are listed elsewhere. T/C: endpoint of the treated group in % of that of the vehicle group. Some doses have a count of surviving animals in place of a T/C: the source holds a T/C of zero for them, seemingly a mark for toxic or unscored doses. Some survivor counts are full or nearly so, which does not show that the dose was tolerated: the source hardly ever lists a survival T/C far under the control, and the zero likely stands for such cases as well. Counts of survivors are from the toxicity check (mostly the fifth day) where no day follows; animals may have died later. Schedule codes are those of the source, taken here to give the interval after Q, in days (D) or hours (H), and the number of doses after X. Brackets with × stand for listed records that agree. Some doses were run more than once; the values are given in rising order. Where survival is the endpoint, this PubChem deposit counts one and a half times the control or more as active, and values a quarter to a half above the control carry no call in these data; other NCI protocols may use other cut-offs. Some T/C values are followed by the survivors on the day toxicity was checked, most often the fifth; without a count, all were alive then.

System: B6C3F1 mice, B16 melanoma ip, median survival T/C
Assay: NCI In Vivo Anticancer Drug Screen. Data for tumor model B16 Melanoma (intraperitoneal) in B6C3F1 mice
Settings: T/C endpoint: median survival time, higher T/C = longer survival
Procedure, shortened: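 Mice bearing transplanted tumor were dosed with compound or vehicle, and survival was recorded. Activity is expressed as the treated-group measurement (T) divided by the vehicle control measurement (C).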

[1] = dose: 1.5 mg/kg/injection, schedule: Q01DX001 (ip), vehicle: water
[2] = dose: 2.0 mg/kg/injection, schedule: Q01DX009 (ip), vehicle: saline
[3] = dose: 3.0 mg/kg/injection, schedule: Q01DX001 (ip), vehicle: water
[4] = dose: 4.0 mg/kg/injection, schedule: Q01DX009 (ip), vehicle: saline
[5] = dose: 6.0 mg/kg/injection, schedule: Q01DX001 (ip), vehicle: water
[6] = dose: 12.0 mg/kg/injection, schedule: Q01DX001 (ip), vehicle: water
[7] = dose: 24.0 mg/kg/injection, schedule: Q01DX001 (ip), vehicle: water
[8] = dose: 12.0 mg/kg/injection, schedule: Q01DX009 (ip), vehicle: Klucel (hydroxypropylcellulose) (HPC)

COc1cccc2c1C(=O)c1c(O)c3c(c(O)c1C2=O)C[C@@](O)(C(=O)CO)C[C@@H]3OC1CC(N)C(O)C(C)O1 (some centres not stated)
T/C (dose: 0.12 mg/kg/injection, schedule: Q01DX009 (ip), vehicle: saline): 138 % of control
T/C (dose: 0.25 mg/kg/injection, schedule: Q01DX009 (ip), vehicle: saline): 149, 161, 165, 193, 203 (2×), 203 [9 of 10 alive], 205, 239 % of control
T/C (dose: 0.5 mg/kg/injection, schedule: Q01DX001 (ip), vehicle: saline): 127 % of control
T/C (dose: 0.5 mg/kg/injection, schedule: Q01DX001 (ip), vehicle: water): 141, 148, 155, 176 % of control
T/C (dose: 0.5 mg/kg/injection, schedule: Q01DX009 (ip), vehicle: saline): 167, 178, 223, 234, 234 [9 of 10 alive], 236, 244, 260, 271, 284, 329, 331 % of control
T/C (dose: 1.0 mg/kg/injection, schedule: Q01DX001 (ip), vehicle: saline): 149 % of control
T/C (dose: 1.0 mg/kg/injection, schedule: Q01DX001 (ip), vehicle: water, evaluated on day 45): 114 % of control
T/C (dose: 1.0 mg/kg/injection, schedule: Q01DX001 (ip), vehicle: water, evaluated on day 60): 146, 154, 155, 164, 165, 169, 173, 179, 185, 189, 208 % of control
T/C (dose: 1.0 mg/kg/injection, schedule: Q01DX009 (ip), vehicle: saline): 187, 191 [9 of 10 alive], 205, 219, 242, 272, 289 [9 of 10 alive], 301 [9 of 10 alive], 302, 311 [9 of 10 alive], 333, 346, 347, 348, 357, 363 % of control
T/C [1]: 185, 196, 200 (2×), 213 % of control
T/C (dose: 2.0 mg/kg/injection, schedule: Q01DX001 (ip), vehicle: water, evaluated on day 45): 114 % of control
T/C (dose: 2.0 mg/kg/injection, schedule: Q01DX001 (ip), vehicle: water, evaluated on day 60): 184, 185 (2×), 187, 195, 196, 204, 207 [9 of 10 alive], 221, 225, 304 % of control
T/C (dose: 2.0 mg/kg/injection, schedule: Q01DX005 (iv), vehicle: saline): 132 % of control
T/C [2]: 122, 217, 219, 222, 232, 271, 277, 289 [9 of 10 alive], 310, 316 [9 of 10 alive], 328, 346, 347 [9 of 10 alive], 355, 363 % of control
survivor count [2]: 10 of 10
T/C [3]: 196, 206, 207, 213, 317 % of control
T/C (dose: 4.0 mg/kg/injection, schedule: Q01DX001 (ip), vehicle: saline, evaluated on day 5): 191 and 242 % of control
T/C (dose: 4.0 mg/kg/injection, schedule: Q01DX001 (ip), vehicle: saline, evaluated on day 60): 209 and 250 % of control
T/C (dose: 4.0 mg/kg/injection, schedule: Q01DX001 (ip), vehicle: water, evaluated on day 45): 120 % of control
T/C (dose: 4.0 mg/kg/injection, schedule: Q01DX001 (ip), vehicle: water, evaluated on day 60): 125, 198, 199, 200, 226, 237, 247, 261, 277, 292, 304 % of control
survivor count (dose: 4.0 mg/kg/injection, schedule: Q01DX005 (ip), vehicle: saline): 10 of 10
survivor count (dose: 4.0 mg/kg/injection, schedule: Q01DX005 (iv), vehicle: saline): 10 of 10
T/C [4]: 94, 98, 259 % of control
survivor count [4]: 9 of 10 and 10 of 10 (2×)
survivor count (dose: 4.0 mg/kg/injection, schedule: Q01DX009 (ip), vehicle: water): 10 of 10
T/C (dose: 4.5 mg/kg/injection, schedule: Q01DX001 (ip), vehicle: saline): 147 % of control
T/C [5]: 220, 277, 317, 322, 337 % of control
T/C (dose: 8.0 mg/kg/injection, schedule: Q01DX001 (ip), vehicle: saline, evaluated on day 5): 178 and 278 % of control
T/C (dose: 8.0 mg/kg/injection, schedule: Q01DX001 (ip), vehicle: saline, evaluated on day 60): 233 and 300 % of control
T/C (dose: 8.0 mg/kg/injection, schedule: Q01DX001 (ip), vehicle: water, evaluated on day 45): 123 % of control
T/C (dose: 8.0 mg/kg/injection, schedule: Q01DX001 (ip), vehicle: water, evaluated on day 60): 178, 211, 241, 264, 297, 304, 309 (2×), 317, 320, 346 % of control
T/C (dose: 8.0 mg/kg/injection, schedule: Q01DX001 (iv), vehicle: saline): 136 % of control
survivor count (dose: 8.0 mg/kg/injection, schedule: Q01DX005 (ip), vehicle: saline): 7 of 10
survivor count (dose: 8.0 mg/kg/injection, schedule: Q01DX005 (iv), vehicle: saline): 8 of 10
survivor count (dose: 8.0 mg/kg/injection, schedule: Q01DX009 (ip), vehicle: saline): 8 of 10, 9 of 10, 10 of 10
survivor count (dose: 8.0 mg/kg/injection, schedule: Q01DX009 (ip), vehicle: water): 8 of 10, 9 of 10, 10 of 10
T/C [6]: 220, 317, 333, 337 % of control
survivor count [6]: 6 of 10
T/C (dose: 16.0 mg/kg/injection, schedule: Q01DX001 (ip), vehicle: saline, evaluated on day 5): 43 [8 of 9 alive] and 78 % of control
T/C (dose: 16.0 mg/kg/injection, schedule: Q01DX001 (ip), vehicle: saline, evaluated on day 60): 118 and 300 % of control
T/C (dose: 16.0 mg/kg/injection, schedule: Q01DX001 (ip), vehicle: water, evaluated on day 45): 158 % of control [9 of 10 alive]
T/C (dose: 16.0 mg/kg/injection, schedule: Q01DX001 (ip), vehicle: water, evaluated on day 60): 95 [8 of 10 alive], 112, 128, 139 [9 of 10 alive], 192, 295, 346 % of control
survivor count (dose: 16.0 mg/kg/injection, schedule: Q01DX001 (ip), vehicle: water): 7 of 10 and 8 of 10
T/C (dose: 16.0 mg/kg/injection, schedule: Q01DX001 (iv), vehicle: saline): 145 % of control [9 of 10 alive]
survivor count (dose: 16.0 mg/kg/injection, schedule: Q01DX005 (ip), vehicle: saline): 5 of 10
survivor count (dose: 16.0 mg/kg/injection, schedule: Q01DX005 (iv), vehicle: saline): 5 of 10
survivor count (dose: 16.0 mg/kg/injection, schedule: Q01DX009 (ip), vehicle: saline): 10 of 10
survivor count (dose: 18.0 mg/kg/injection, schedule: Q01DX001 (ip), vehicle: saline): 6 of 10
T/C [7]: 115, 151, 160 % of control
survivor count [7]: 1 of 10 and 10 of 10
survivor count (dose: 32.0 mg/kg/injection, schedule: Q01DX001 (ip), vehicle: saline): 9 of 10
survivor count (dose: 32.0 mg/kg/injection, schedule: Q01DX001 (iv), vehicle: saline): 8 of 10
survivor count (dose: 36.0 mg/kg/injection, schedule: Q01DX001 (ip), vehicle: saline): 4 of 10 and 10 of 10
survivor count (dose: 72.0 mg/kg/injection, schedule: Q01DX001 (ip), vehicle: saline): 0 of 10 and 10 of 10
T/C (dose: 40.0 micrograms/kg/injection, schedule: Q01DX005 (ip), vehicle: saline): 135 % of control

COC1CC2C=C(C)/C=C/C=C/C(=O)NC(c3ccccc3)C/C=C/CCC(O)CC(=O)C2=C1O (configuration not stated)
T/C (dose: 3.12 mg/kg/injection, schedule: Q01DX009 (ip), vehicle: Klucel (hydroxypropylcellulose) (HPC)): 137 % of control
T/C (dose: 6.0 mg/kg/injection, schedule: Q01DX009 (ip), vehicle: Klucel (hydroxypropylcellulose) (HPC)): 134 % of control
T/C (dose: 6.25 mg/kg/injection, schedule: Q01DX009 (ip), vehicle: Klucel (hydroxypropylcellulose) (HPC)): 143 % of control
T/C [8]: 138 % of control
survivor count [8]: 10 of 10
survivor count (dose: 24.0 mg/kg/injection, schedule: Q01DX009 (ip), vehicle: Klucel (hydroxypropylcellulose) (HPC)): 3 of 10, 6 of 10, 10 of 10
survivor count (dose: 25.0 mg/kg/injection, schedule: Q01DX009 (ip), vehicle: Klucel (hydroxypropylcellulose) (HPC)): 10 of 10 (2×)
survivor count (dose: 50.0 mg/kg/injection, schedule: Q01DX009 (ip), vehicle: Klucel (hydroxypropylcellulose) (HPC)): 3 of 10

CC(=O)[C@]1(O)Cc2c(O)c3c(c(O)c2[C@@H](OC2CC(N)C(O)C(C)O2)C1)C(=O)c1c(O)cccc1C3=O (some centres not stated)
T/C (dose: 0.75 mg/kg/injection, schedule: Q01DX001 (ip), vehicle: water): 135 % of control
survivor count [1]: 10 of 10
survivor count [3]: 7 of 10
survivor count [5]: 0 of 10
